From patent US7001608B2, “Artificial synapse chip interface for electronic prosthetic retina” (The Board of Trustees of the Lealand Stanford Junior …, priority 2001, dated 2006)
At least one structure is not confirmed: it was looked up by name or label, or the drawing left a doubt. Where no end group is shown, it is not given here.

Tests used:
PC12 cells [1] = settings: PC12 cell line; cited from earlier work
PC12 cells [2] = assay: Bradykinin stimulation of PC12 cells through the chip aperture, intracellular Ca2+ by fluo-4 fluorescence; settings: 100 μM bradykinin in Ringer's, 10 μm aperture, time after bradykinin began to flow

RPPGFSPFR [bradykinin]
external bradykinin concentration achieving maximum change of intracellular Ca2+ levels (PC12 cells [1]): 1 µM | time until cells 100 μm from the aperture were stimulated (PC12 cells [2]): 9 s
